In patent US20260363251A1 (priority 2022, published 2026):
For at least one compound, name, drawing or mass did not settle the structure. Numbered stars: 1 amine (or outer) side, 2 acyl side, 3 side chain; on linkers, the order of the positions; unused ones are H or OH. Bridge positions count the residues as written; N and C are the ends. Square brackets hold non-standard residues; d marks the D form. Peptide text beside a SMILES is read from it. * marks the point of attachment. X4 = NC(=O)C[C@@H](O)[C@@H](N[*:1])C(=O)[*:2]; d(aThr) = C[C@@H](O)[C@@H](N)C(=O)O; NMeF = CN[C@@H](Cc1ccccc1)C(=O)O; X3 = CC[C@@H](C)CCCCCCCCCCC(=O)*; dNMeN = CN[C@H](CC(N)=O)C(=O)O

Assay: Solubility in water or DMSO
Conditions: DMSO

With `CC[C@@H](C)CCCCCCCCCCC(=O)N[C@H]1C(=O)N[C@@H](CC(=O)O)C(=O)N[C@H](CO)C(=O)N[C@@H](CO)C(=O)N(C)[C@H](CC(N)=O)C(=O)N(C)[C@@H](Cc2ccccc2)C(=O)N[C@H]([C@H](O)CC(N)=O)C(=O)N[C@H](CCC(=O)O)C(=O)O[C@@H]1C` [Lipopeptin A] (X3-[d(aThr)]D[dS]S[dNMeN][NMeF][X4][dE]; ester 1-C) the solubility was >10′000 ppm.
